This is an account of results in paper PMC5982776, “The novel anti-androgen candidate galeterone targets deubiquitinating enzymes, USP12 and USP46, to control prostate cancer growth and survival” (Oncotarget, 2018).

By UniProt entry, the sequences of proteins in these tests, tags left out. Where a name states a change or a piece, a line headed by the entry shows the natural chain unless it says otherwise. Chains listed by the source or under a name are the forms on record and can include a tag or linker.
UniProt P10275: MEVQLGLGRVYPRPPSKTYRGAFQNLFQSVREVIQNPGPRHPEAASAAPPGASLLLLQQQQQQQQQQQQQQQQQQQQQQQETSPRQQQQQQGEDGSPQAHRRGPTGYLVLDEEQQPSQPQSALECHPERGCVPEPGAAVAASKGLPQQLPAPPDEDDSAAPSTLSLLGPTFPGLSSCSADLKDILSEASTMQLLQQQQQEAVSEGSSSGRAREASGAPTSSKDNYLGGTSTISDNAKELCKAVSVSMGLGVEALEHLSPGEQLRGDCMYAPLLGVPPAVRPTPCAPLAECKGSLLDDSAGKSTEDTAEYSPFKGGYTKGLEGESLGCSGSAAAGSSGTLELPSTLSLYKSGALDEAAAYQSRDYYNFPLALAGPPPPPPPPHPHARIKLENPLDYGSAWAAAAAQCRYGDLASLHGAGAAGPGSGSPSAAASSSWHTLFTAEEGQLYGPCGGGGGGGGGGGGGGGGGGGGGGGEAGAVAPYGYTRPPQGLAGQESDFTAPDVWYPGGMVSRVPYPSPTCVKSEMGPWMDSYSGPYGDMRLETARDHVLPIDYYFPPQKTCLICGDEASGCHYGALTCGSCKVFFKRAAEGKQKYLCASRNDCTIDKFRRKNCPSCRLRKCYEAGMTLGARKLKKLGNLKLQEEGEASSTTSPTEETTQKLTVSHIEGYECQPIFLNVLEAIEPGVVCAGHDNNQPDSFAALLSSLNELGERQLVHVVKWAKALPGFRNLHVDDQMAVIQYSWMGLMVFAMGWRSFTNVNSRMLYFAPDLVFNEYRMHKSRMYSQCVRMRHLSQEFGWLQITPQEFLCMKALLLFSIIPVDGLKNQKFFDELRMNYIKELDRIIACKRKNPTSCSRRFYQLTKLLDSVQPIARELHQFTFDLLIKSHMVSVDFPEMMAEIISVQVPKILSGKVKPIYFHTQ
AR V7 (P10275, form named): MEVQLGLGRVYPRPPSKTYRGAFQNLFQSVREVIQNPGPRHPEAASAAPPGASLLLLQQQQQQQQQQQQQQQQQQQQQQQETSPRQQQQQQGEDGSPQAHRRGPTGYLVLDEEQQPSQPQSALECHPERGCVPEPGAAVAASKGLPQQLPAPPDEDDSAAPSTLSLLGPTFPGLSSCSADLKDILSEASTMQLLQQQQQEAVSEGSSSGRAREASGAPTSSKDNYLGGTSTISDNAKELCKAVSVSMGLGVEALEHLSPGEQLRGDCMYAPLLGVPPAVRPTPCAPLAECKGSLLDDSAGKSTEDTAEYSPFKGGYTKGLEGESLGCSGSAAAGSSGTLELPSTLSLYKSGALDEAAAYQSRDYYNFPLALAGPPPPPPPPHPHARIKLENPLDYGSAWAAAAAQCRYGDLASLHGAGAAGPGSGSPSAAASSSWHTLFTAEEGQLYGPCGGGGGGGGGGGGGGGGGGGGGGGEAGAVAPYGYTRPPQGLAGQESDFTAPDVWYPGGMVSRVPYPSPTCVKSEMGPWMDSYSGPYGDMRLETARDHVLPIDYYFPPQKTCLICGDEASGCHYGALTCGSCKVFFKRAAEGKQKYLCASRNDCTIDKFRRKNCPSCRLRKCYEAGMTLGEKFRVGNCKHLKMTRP
UniProt O75317: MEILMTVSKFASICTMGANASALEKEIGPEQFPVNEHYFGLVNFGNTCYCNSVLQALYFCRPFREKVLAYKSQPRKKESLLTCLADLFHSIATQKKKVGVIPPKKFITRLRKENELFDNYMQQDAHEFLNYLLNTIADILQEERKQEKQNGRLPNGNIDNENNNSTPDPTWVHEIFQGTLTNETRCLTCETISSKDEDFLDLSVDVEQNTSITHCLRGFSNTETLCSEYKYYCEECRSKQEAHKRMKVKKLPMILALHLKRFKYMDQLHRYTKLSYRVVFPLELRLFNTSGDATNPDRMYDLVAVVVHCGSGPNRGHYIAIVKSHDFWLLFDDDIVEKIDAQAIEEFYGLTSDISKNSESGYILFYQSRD
UniProt P62068: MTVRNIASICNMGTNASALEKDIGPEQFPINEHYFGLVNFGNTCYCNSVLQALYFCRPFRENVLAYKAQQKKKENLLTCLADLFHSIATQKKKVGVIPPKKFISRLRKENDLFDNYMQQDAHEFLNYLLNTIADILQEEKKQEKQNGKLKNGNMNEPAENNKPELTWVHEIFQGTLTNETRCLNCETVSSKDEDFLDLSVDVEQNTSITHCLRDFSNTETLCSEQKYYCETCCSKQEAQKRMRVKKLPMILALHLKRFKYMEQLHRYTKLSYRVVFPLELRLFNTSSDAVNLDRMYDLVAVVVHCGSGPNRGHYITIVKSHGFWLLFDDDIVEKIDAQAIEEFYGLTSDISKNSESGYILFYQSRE

These are yes or no findings as the source states them, for the method shown. In cells and extracts the contact can be indirect. Some entries that bind do so weakly or less than the wild type.

The target in one assay is AR V7 (UniProt P10275). The assay can be described thus: co-IP; plasmids overexpressed in COS-7 cells for 72 h; AR constructs immunoprecipitated from lysate (50 mM Tris pH 7.5, 150 mM NaCl, 1% Nonidet P-40) with 1 ug antibody for 16 h at 4 C, protein G-Sepharose; Western blotting.
In assay [1] the target is full-length androgen receptor (AR FL) (UniProt P10275). The assay is described as above.

With “USP12 (from UniProt O75317 1-370) (enzyme)”, the results for the binding result (with AR V7; in assay [1]) were “no binding” and “binds”, respectively. On to “USP46 (from UniProt P62068 1-366) (enzyme)”, for which the binding entry in assay [1] is listed as “binds”.
